Measured values from the supplement of paper PMC3334620.
In all, about 33,000 sequences were measured (“E-score (-0.5 to 0.5)”: median about -8e-05, highest 2% from about 0.23 on). The list shows a part of the results.

These sequences were tested against T1, Nrg2 (UniProt P38082) (assay: PBM E-score (8-mer binding enrichment) (E-score (-0.5 to 0.5)); higher = stronger / more preferred TF binding). Conditions: protein concentration: 100 nM; construct: GST-full length.
T1 sequence: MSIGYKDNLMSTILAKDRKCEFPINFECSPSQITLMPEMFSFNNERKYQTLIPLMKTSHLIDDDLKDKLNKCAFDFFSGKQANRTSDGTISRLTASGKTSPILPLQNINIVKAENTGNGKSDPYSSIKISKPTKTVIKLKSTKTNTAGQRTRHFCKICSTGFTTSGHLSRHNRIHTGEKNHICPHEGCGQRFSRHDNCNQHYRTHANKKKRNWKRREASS
How it was run: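 Yeast transcription factors, full-length or as DNA-binding domains, were expressed with a GST tag using PURExpress in vitro transcription/translation. At about 100-200 nM they were applied to universal all-10-mer Agilent arrays, double-stranded by primer extension on fresh or once-stripped slides. Fluorescent anti-GST detected bound protein, and masliner normalised the scans. E-scores for ungapped eight-base words, pooled with reverse complements, came from the Universal PBM Analysis Suite.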
AACACAGA was tested, and the “PBM E-score” value was 0.0588. In the case of CACGGCGC, the “PBM E-score” value is reported as 0.0276. ACGGCTAT was tested, and the “PBM E-score” value was -0.15. For GGGCTCGA, the “PBM E-score” value was -0.0974. With AAAATTGG the “PBM E-score” value was 0.16. For CCGTTGTC, the “PBM E-score” value was 0.208. CGCCAAAC was tested, and the “PBM E-score” value was 0.022. In the case of GGAGGGAA, the “PBM E-score” value is reported as -0.13. With GAACCTAA the “PBM E-score” value was 0.0631. CAGACAGG was tested, and the “PBM E-score” value was 0.0365. AGATTGGA was tested, and the “PBM E-score” value was -0.0469. CCTATACC was tested, and the “PBM E-score” value was -0.149. GGCGATCA was tested, and the “PBM E-score” value was -0.103. With GAAGATGC the “PBM E-score” value was -0.0271. ACGCGGTG was tested, and the “PBM E-score” value was 0.109. With AATACAAA the “PBM E-score” value was 0.269. AAGGGCTG was tested, and the “PBM E-score” value was -0.263. With CCGATATC the “PBM E-score” value was 0.0702. With AATTGCCA the “PBM E-score” value was 0.139. For CCATAGCG, the “PBM E-score” value was -0.024. In the case of ATTGTCCG, the “PBM E-score” value is reported as 0.176. For AGCCAGCT, the “PBM E-score” value was -0.149. With TATCACCA the “PBM E-score” value was 0.0224. For CGCATCGA, the “PBM E-score” value was 0.17. For AACACCTC, the “PBM E-score” value was -0.142. With CTCGATGA the “PBM E-score” value was 0.173. GGTACAAA was tested, and the “PBM E-score” value was -0.0265. In the case of CATTGCAA, the “PBM E-score” value is reported as -0.00795. For TAAAGCAA, the “PBM E-score” value was 0.155. CTCGCCCA was tested, and the “PBM E-score” value was 0.0673. For AGGACGAA, the “PBM E-score” value was 0.055. AATGCCGT was tested, and the “PBM E-score” value was 0.142. With CGCAGTAG the “PBM E-score” value was -0.0995. With AATCACTA the “PBM E-score” value was 0.0985. In the case of ATTGGGGA, the “PBM E-score” value is reported as -0.0847. In the case of CATGAGCC, the “PBM E-score” value is reported as -0.166. With TGCAGCCA the “PBM E-score” value was 0.108. In the case of CTAGTGAC, the “PBM E-score” value is reported as -0.11. AGCCTTCA was tested, and the “PBM E-score” value was -0.00453. In the case of AACCACTA, the “PBM E-score” value is reported as -0.0877. In the case of GCTTAACC, the “PBM E-score” value is reported as -0.136. With GAGTAAGA the “PBM E-score” value was -0.0102. For GGACGGGA, the “PBM E-score” value was -0.185. With CGCTTTTA the “PBM E-score” value was -0.0218. In the case of AGTGACGC, the “PBM E-score” value is reported as 0.012. In the case of AATATGAT, the “PBM E-score” value is reported as 0.179. For GTTCCTGA, the “PBM E-score” value was -0.0302. In the case of ATCACGGC, the “PBM E-score” value is reported as 0.157. AGTGCAGC was tested, and the “PBM E-score” value was 0.00819. In the case of ACGATCGA, the “PBM E-score” value is reported as 0.0838. In the case of CTAGAGGC, the “PBM E-score” value is reported as 0.00362. CCGTCTCG was tested, and the “PBM E-score” value was 0.0341. With GTGCCGGA the “PBM E-score” value was 0.0495. For GGCATAAC, the “PBM E-score” value was 0.0771. For AACATGGG, the “PBM E-score” value was 0.21. With CTGTCGGA the “PBM E-score” value was -0.127. For AAATGCAT, the “PBM E-score” value was 0.116. In the case of ATGACAGG, the “PBM E-score” value is reported as -0.148. With ACACGTGG the “PBM E-score” value was -0.0563. For AGATGCTA, the “PBM E-score” value was 0.0384. ACAAGTCA was tested, and the “PBM E-score” value was -0.132. TCCAGCCA was tested, and the “PBM E-score” value was -0.25. With ACCCTTGG the “PBM E-score” value was 0.198. For AGCAAGGC, the “PBM E-score” value was -0.0107. In the case of CCAATCGC, the “PBM E-score” value is reported as 0.0764. In the case of TACAGTGA, the “PBM E-score” value is reported as 0.0642. TGCAGGCA was tested, and the “PBM E-score” value was -0.166. In the case of TATTCCGA, the “PBM E-score” value is reported as 0.0741. With AACTTGCT the “PBM E-score” value was -0.0414. For CGCATAAC, the “PBM E-score” value was 0.119. For ATTACGTC, the “PBM E-score” value was -0.0343. TACTGCAA was tested, and the “PBM E-score” value was 0.0102. In the case of ACCTGGAG, the “PBM E-score” value is reported as -0.16. With CAGGCCTC the “PBM E-score” value was -0.306. For GCTCGACA, the “PBM E-score” value was -0.205. CGAAACAC was tested, and the “PBM E-score” value was 0.137. For GACTTCCC, the “PBM E-score” value was -0.137. For AACAAGGC, the “PBM E-score” value was -0.0824. In the case of CACGATTC, the “PBM E-score” value is reported as 0.142. AGCGAAAG was tested, and the “PBM E-score” value was -0.00512. For AGACAATA, the “PBM E-score” value was 0.204. CATTATCA was tested, and the “PBM E-score” value was 0.115. In the case of ACCGCTAA, the “PBM E-score” value is reported as 0.0602. In the case of GCGAGAGC, the “PBM E-score” value is reported as -0.1. In the case of AATTTAAT, the “PBM E-score” value is reported as 0.222. AATTTGCT was tested, and the “PBM E-score” value was 0.0122. With CAAATGCA the “PBM E-score” value was -0.0764. In the case of GCAAATGA, the “PBM E-score” value is reported as 0.0451. CGAAAGAG was tested, and the “PBM E-score” value was -0.108. For TAGTATGA, the “PBM E-score” value was 0.26. In the case of CCGAGCCA, the “PBM E-score” value is reported as -0.142. For AAGTGATC, the “PBM E-score” value was 0.0173. With CTCGGTCA the “PBM E-score” value was -0.0604. In the case of TCAGGAAA, the “PBM E-score” value is reported as -0.0263. ATATTGGA was tested, and the “PBM E-score” value was 0.0164. For GATTACGC, the “PBM E-score” value was 0.0724. In the case of TAGTGGGA, the “PBM E-score” value is reported as 0.0079. In the case of ACCCGGGG, the “PBM E-score” value is reported as -0.0171. In the case of AGAGCGAG, the “PBM E-score” value is reported as -0.0653. For CCTACGCC, the “PBM E-score” value was -0.277. In the case of GTAGACGA, the “PBM E-score” value is reported as -0.133. For ACACACCA, the “PBM E-score” value was 0.125. For ATCACGCC, the “PBM E-score” value was -0.026. In the case of ACATAGGT, the “PBM E-score” value is reported as 0.112. With GCATCATA the “PBM E-score” value was 0.0672. ATAGAAGA was tested, and the “PBM E-score” value was -0.158. With GACCAACA the “PBM E-score” value was 0.224. In the case of GACGATAC, the “PBM E-score” value is reported as 0.0105. With TCATAGAA the “PBM E-score” value was 0.073. With CCACATAC the “PBM E-score” value was 0.0682. With ACACTTGA the “PBM E-score” value was 0.0129. For AGAGCCCC, the “PBM E-score” value was -0.139. In the case of GAAAGTAC, the “PBM E-score” value is reported as 0.107. For ATGGCATC, the “PBM E-score” value was 0.11. With GGAGCGAA the “PBM E-score” value was -0.0981. In the case of ATCTATTC, the “PBM E-score” value is reported as 0.0653. GTATTTGA was tested, and the “PBM E-score” value was -0.0333. In the case of TATTAAGA, the “PBM E-score” value is reported as -0.0662. For AGATTTCA, the “PBM E-score” value was 0.0272. With ACGGGATG the “PBM E-score” value was -0.0465. With CGTCGCAC the “PBM E-score” value was -0.0266. In the case of CCTGTTCC, the “PBM E-score” value is reported as 0.0159. With GGGCAGTA the “PBM E-score” value was 0.166. GGGTCACA was tested, and the “PBM E-score” value was -0.0942. In the case of CGGTACGC, the “PBM E-score” value is reported as -0.109. For GAACCACA, the “PBM E-score” value was 0.2. For GAGAACAC, the “PBM E-score” value was -0.00609. CGCCATAA was tested, and the “PBM E-score” value was -0.0189. TCGAAGCA was tested, and the “PBM E-score” value was -0.118. For ATAAGTCC, the “PBM E-score” value was -0.0254. ACCCAGAT was tested, and the “PBM E-score” value was -0.0909. CGGACGTC was tested, and the “PBM E-score” value was 0.0781. With GACGTGAC the “PBM E-score” value was -0.129. AGAATGTC was tested, and the “PBM E-score” value was 0.00292. With TACGGACA the “PBM E-score” value was -0.0578. In the case of ATCTTGTA, the “PBM E-score” value is reported as -0.0604. For ACACAATA, the “PBM E-score” value was 0.198. With TACACGCA the “PBM E-score” value was -0.194. TAAGCCAA was tested, and the “PBM E-score” value was 0.0361. In the case of GACAGTGA, the “PBM E-score” value is reported as 0.0197. For AACTGCTA, the “PBM E-score” value was 0.0301. GAAAGCGA was tested, and the “PBM E-score” value was 0.14. In the case of AACTAAGA, the “PBM E-score” value is reported as 0.126. With GATCTAGA the “PBM E-score” value was -0.0372. ACATCCAT was tested, and the “PBM E-score” value was 0.00901. AGCCTCTG was tested, and the “PBM E-score” value was -0.275. With CAGGTGTC the “PBM E-score” value was 0.0574. CCCAAAGA was tested, and the “PBM E-score” value was 0.0152. With AAGCCGTC the “PBM E-score” value was -0.0705. For GAACCTGC, the “PBM E-score” value was 0.0812. For AGATTTAC, the “PBM E-score” value was 0.0792. For ACTGTCAT, the “PBM E-score” value was 0.132. For AAGAACAA, the “PBM E-score” value was 0.194. GGAGAGAA was tested, and the “PBM E-score” value was -0.0878. AAACAGGC was tested, and the “PBM E-score” value was -0.144. With ATGGTACC the “PBM E-score” value was -0.0466. With TGCACACA the “PBM E-score” value was -0.0368. In the case of CTTCGATC, the “PBM E-score” value is reported as -0.00647. In the case of CATGGCCG, the “PBM E-score” value is reported as 0.258. In the case of CACAACGG, the “PBM E-score” value is reported as 0.102. GATCCGTA was tested, and the “PBM E-score” value was -0.155. In the case of CCTTGAGC, the “PBM E-score” value is reported as 0.0449. In the case of ATGGAAGG, the “PBM E-score” value is reported as -0.214. For CAAGAATA, the “PBM E-score” value was 0.123. ATCTACGC was tested, and the “PBM E-score” value was 0.226. For TAAAAGAA, the “PBM E-score” value was 0.0181. For TGGTAGAA, the “PBM E-score” value was -0.19. For CAGGCGGG, the “PBM E-score” value was -0.0776. In the case of CCCTACCG, the “PBM E-score” value is reported as -0.116. CATACTGC was tested, and the “PBM E-score” value was 0.0795. In the case of CGGTAACC, the “PBM E-score” value is reported as -0.112. AGTGGCAC was tested, and the “PBM E-score” value was -0.0847.
